# Assay: Sensitometry and screen dot quality after development in Rapid Access developer containing the compound (Example 2, Table 1)
# Details: 0.46 mmole/l in developer; for dot rating (screen dot quality): arbitrary 0 (best) to 5, increasing = degrading quality, above 3 not commercially acceptable; for gv (gradient in the toe of the sensitometric curve): between densities 0.1 and 0.6 above fog; for g (straight line gradient): between densities 0.3 and 3.0 above fog; for rel. S (photographic speed, relative arithmetic values): measured at density 3.00 above fog, comparison sample 1 (5-NI) = 100
SMILES,dot rating (screen dot quality),gv (gradient in the toe of the sensitometric curve),g (straight line gradient),"rel. S (photographic speed, relative arithmetic values)"
O=[N+]([O-])c1ccc2[nH]ncc2c1 [5-nitroindazole],2-3,4.3,12.8,100
O=C(c1ccccc1S(=O)(=O)O)n1ncc2cc([N+](=O)[O-])ccc21 [Compound I-5],1-2,5.7,16.0,112

# Source: patent US5236815A, “Class of masked stabilizers in photographic materials or developing solutions” (priority 1991, dated 1993)
